“And” between values parts separate entries of the source, which are not always exact repeats. Equal entries are not always repeated. Structures can show the parent of a compound that is named as a salt.
Conditions: individual micronised formoterol fumarate dihydrate batches, dry dispersion

Structure (SMILES): COc1ccc(CC(C)NCC(O)c2ccc(O)c(NC=O)c2)cc1 (stereo not shown) [7544MA, formoterol fumarate dihydrate]
- PSD <10 μm: 100%
- PSD d10: 0.5 μm (5×) and 0.6 μm (2×)
- PSD d50: 1.6 μm (5×) and 1.8 μm and 1.7 μm
- PSD d90: 3.3 μm (4×) and 3.4 μm (2×) and 3.2 μm

Structure (SMILES): COc1ccc(CC(C)NCC(O)c2ccc(O)c(NC=O)c2)cc1 (stereo not shown) [7544MO, formoterol fumarate dihydrate]
- PSD <10 μm: 99% (2×) and 100% (3×)
- PSD d10: 0.5 μm
- PSD d50: 1.7 μm (3×) and 1.9 μm and 1.8 μm

— patent US11071835B2, “Inhalable medicaments” (PHARMACHEMIE B.V., priority 2013, dated 2021)
